This test deals with T1, WLIM2A (At2g39900) (Arabidopsis) (UniProt O04193).
T1 sequence: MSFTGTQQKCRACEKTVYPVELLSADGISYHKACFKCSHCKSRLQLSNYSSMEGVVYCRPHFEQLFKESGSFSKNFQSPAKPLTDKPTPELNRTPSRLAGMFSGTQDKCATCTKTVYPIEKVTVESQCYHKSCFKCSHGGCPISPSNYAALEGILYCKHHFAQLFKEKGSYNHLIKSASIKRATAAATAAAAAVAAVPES
The test is described as follows: split reporter.

By UniProt entry, the sequences of proteins in these tests, tags left out.
UniProt Q39026: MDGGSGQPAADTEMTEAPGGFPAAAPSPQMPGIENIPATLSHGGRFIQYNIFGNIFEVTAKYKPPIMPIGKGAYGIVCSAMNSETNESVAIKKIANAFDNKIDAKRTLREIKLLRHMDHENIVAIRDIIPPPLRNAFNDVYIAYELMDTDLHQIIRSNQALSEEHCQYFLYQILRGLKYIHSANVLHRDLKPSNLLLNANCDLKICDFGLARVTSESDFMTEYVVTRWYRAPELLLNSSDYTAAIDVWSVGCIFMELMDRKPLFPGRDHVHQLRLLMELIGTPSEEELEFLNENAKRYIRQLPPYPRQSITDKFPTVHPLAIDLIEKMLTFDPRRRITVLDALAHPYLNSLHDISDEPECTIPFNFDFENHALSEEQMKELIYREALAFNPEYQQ

These are yes or no findings as the source states them, for the method shown. In cells and extracts the contact can be indirect. Some binding calls cover weakened binding; strength is not graded here.

As for “MPK6 (from UniProt Q39026 1-395) (enzyme)”, the binding entry was “binds”.

B1: MPK3 (enzyme, UniProt Q39023 1-370)
chain: MNTGGGQYTDFPAVETHGGQFISYDIFGSLFEITSKYRPPIIPIGRGAYGIVCSVLDTETNELVAMKKIANAFDNHMDAKRTLREIKLLRHLDHENIIAIRDVVPPPLRRQFSDVYISTELMDTDLHQIIRSNQSLSEEHCQYFLYQLLRGLKYIHSANIIHRDLKPSNLLLNANCDLKICDFGLARPTSENDFMTEYVVTRWYRAPELLLNSSDYTAAIDVWSVGCIFMELMNRKPLFPGKDHVHQMRLLTELLGTPTESDLGFTHNEDAKRYIRQLPNFPRQPLAKLFSHVNPMAIDLVDRMLTFDPNRRITVEQALNHQYLAKLHDPNDEPICQKPFSFEFEQQPLDEEQIKEMIYQEAIALNPTYG
B1: the binding result is reported as “binds”.

For the origin of these results see paper doi:10.1101/2023.12.13.571563.
